Read-outs that look alike come from different tables or passages of the source. No constants are given. Whether binding was seen depends on the method and setting. In cells and extracts the contact can be indirect. Some entries that bind do so weakly or less than the wild type. For part of these data: Tags and fused reporters may be left off the sequences shown. Blank lines part the entries; values can stand above or below the molecule they belong to.
Legend:
[1] = biological target: GST-JRAB-CC4 (aa 840-930) (mouse) (UniProt Q3TN34); experiment: pull-down; purified GST-JRAB-CC4 (aa 840-930) on glutathione-Sepharose beads; HEK293 lysates with Myc-JRAB and HA-Rab13DA, HA-Rab8ADA or HA; buffer A, 90 min, 4 °C; western blot with anti-Myc; only the target purified
[2] = biological target: HA-Rab8A dominant-active (DA) mutant (Q67L) (mouse) (UniProt P55258); experiment: co-IP; HEK293 lysates; anti-HA antibody (12CA5) on Protein G beads; buffer A, 90 min, 4 °C; western blot
[3] = biological target: GST-JRAB-C (mouse) (UniProt Q3TN34); experiment: pull-down; purified GST-JRAB-C on glutathione-Sepharose beads; HEK293 lysates with GFP-tagged Rab8ADA, Rab13DA, truncation or chimeric variants; buffer A, 90 min, 4 °C; western blot with anti-GFP; only the target purified
[4] = biological target: GST-JRAB-C (mouse) (UniProt Q3TN34); experiment: as above; remark: listed apart in the source
[5] = biological target: GFP-JRAB-C (aa 806-1009) (mouse) (UniProt Q3TN34); experiment: pull-down; purified GST-JRAB-CH+LIM on glutathione-Sepharose beads; lysates of HEK293 cells co-expressing GFP-JRAB-C with an HA-tagged Rab (Rab13DA, Rab8ADA, Rab13DA-C8A, Rab8ADA-C13) or HA; buffer A (10 mM Tris-HCl pH 8.0, 1 mM EDTA, 1% NP-40, 150 mM NaCl, 5 mM MgCl2), 90 min, 4 °C; western blot with anti-GFP; only the target purified

Chains of the proteins cited; added tags and fusions are not shown. Lines headed by an entry give the natural chain unless they say otherwise; changes in a name come on top. A line that says so, or that is headed by a name, gives the form on record, which may keep a tag or linker. Residues count along the entry.
UniProt Q3TN34: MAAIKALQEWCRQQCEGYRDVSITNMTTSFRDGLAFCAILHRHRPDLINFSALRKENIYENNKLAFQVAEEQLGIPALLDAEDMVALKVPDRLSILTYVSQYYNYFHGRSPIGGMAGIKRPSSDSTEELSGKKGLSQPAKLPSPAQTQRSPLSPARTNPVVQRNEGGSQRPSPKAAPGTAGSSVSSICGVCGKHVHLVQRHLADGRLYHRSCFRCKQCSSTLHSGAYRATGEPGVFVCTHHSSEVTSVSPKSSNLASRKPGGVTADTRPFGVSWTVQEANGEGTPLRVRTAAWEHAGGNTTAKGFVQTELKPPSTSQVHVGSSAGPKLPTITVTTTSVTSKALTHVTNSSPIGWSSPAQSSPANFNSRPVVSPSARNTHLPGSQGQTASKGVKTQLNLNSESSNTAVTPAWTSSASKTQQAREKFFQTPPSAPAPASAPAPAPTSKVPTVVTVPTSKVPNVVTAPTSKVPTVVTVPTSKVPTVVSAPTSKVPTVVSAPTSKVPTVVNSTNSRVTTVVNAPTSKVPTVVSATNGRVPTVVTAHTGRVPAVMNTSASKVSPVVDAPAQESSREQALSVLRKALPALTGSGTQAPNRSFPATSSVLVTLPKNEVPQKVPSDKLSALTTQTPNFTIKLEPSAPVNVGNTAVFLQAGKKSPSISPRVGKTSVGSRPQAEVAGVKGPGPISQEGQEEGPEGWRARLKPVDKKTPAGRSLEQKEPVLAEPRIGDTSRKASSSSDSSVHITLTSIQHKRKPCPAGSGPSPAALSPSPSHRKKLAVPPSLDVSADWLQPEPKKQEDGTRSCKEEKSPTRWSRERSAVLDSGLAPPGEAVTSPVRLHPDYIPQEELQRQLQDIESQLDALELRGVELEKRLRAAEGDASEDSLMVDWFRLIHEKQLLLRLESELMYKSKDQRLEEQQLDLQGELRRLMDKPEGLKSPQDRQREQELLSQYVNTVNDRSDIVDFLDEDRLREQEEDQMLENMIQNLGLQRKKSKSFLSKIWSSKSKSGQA
GFP-JRAB-C (aa 806-1009): residues 806-1009 of Q3TN34
GST-JRAB-CC4 (aa 840-930): residues 840-930 of Q3TN34
UniProt P55258: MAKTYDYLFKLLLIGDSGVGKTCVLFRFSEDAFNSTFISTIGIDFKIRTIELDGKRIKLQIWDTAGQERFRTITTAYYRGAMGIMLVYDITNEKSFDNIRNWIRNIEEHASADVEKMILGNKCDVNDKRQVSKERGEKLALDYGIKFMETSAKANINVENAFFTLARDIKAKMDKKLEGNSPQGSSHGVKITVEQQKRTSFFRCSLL
GFP-Rab8ADA (P55258, form named): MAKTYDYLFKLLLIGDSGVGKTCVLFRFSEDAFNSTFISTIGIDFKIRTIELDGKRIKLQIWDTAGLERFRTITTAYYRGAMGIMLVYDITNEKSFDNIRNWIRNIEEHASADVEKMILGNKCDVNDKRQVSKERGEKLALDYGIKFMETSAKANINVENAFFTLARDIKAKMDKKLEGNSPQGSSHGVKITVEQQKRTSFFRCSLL
GFP-Rab8ADAΔC3 (aa 1-190) (P55258, form named): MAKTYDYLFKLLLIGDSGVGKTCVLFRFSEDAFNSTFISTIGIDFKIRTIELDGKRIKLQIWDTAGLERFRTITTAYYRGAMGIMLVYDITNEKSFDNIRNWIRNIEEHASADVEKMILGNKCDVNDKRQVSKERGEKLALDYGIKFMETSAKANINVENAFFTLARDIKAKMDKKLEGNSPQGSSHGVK

binding [4]: binds
B1: GFP-Rab13DA (protein, UniProt Q9DD03 1-202)
chain: MAKAYDHLFKLLLIGDSGVGKTCLIIRFAEDNFNSTYISTIGIDFKIRTVDIEGKRIKLQVWDTAGLERFKTITTAYYRGAMGIILVYDITDEKSFENIQNWMKSIKENASAGVERLLLGNKCDMEAKRQVQREQAEKLAREHRIRFFETSAKSSVNVDEAFSSLARDILLKTGGRRSGTNSKPSSTGLKTSDKKKNKCLLG

binding [5]: binds
B2: HA-Rab13DA (Q67L) (protein, UniProt Q9DD03 1-202)
chain: MAKAYDHLFKLLLIGDSGVGKTCLIIRFAEDNFNSTYISTIGIDFKIRTVDIEGKRIKLQVWDTAGLERFKTITTAYYRGAMGIILVYDITDEKSFENIQNWMKSIKENASAGVERLLLGNKCDMEAKRQVQREQAEKLAREHRIRFFETSAKSSVNVDEAFSSLARDILLKTGGRRSGTNSKPSSTGLKTSDKKKNKCLLG

The remaining lines, values behind:

Molecule: Myc-JRAB/MICAL-L2 (full length) (from UniProt Q3TN34 1-1009)
binding [1]: binds

Molecule: GFP-JRAB/MICAL-L2 (full length) (from UniProt Q3TN34 1-1009)
binding [2]: binds

Molecule: GFP-Rab8ADA (from UniProt P55258 1-207)
binding [3]: binds

Molecule: GFP-Rab8ADAΔC3 (aa 1-190) (from UniProt P55258 1-190) (domain or fragment)
binding [3]: binds
